Some of the results follow.

Chains of the proteins cited; added tags and fusions are not shown. Lines headed by an entry give the natural chain unless they say otherwise; changes in a name come on top.
UniProt Q8N3C7: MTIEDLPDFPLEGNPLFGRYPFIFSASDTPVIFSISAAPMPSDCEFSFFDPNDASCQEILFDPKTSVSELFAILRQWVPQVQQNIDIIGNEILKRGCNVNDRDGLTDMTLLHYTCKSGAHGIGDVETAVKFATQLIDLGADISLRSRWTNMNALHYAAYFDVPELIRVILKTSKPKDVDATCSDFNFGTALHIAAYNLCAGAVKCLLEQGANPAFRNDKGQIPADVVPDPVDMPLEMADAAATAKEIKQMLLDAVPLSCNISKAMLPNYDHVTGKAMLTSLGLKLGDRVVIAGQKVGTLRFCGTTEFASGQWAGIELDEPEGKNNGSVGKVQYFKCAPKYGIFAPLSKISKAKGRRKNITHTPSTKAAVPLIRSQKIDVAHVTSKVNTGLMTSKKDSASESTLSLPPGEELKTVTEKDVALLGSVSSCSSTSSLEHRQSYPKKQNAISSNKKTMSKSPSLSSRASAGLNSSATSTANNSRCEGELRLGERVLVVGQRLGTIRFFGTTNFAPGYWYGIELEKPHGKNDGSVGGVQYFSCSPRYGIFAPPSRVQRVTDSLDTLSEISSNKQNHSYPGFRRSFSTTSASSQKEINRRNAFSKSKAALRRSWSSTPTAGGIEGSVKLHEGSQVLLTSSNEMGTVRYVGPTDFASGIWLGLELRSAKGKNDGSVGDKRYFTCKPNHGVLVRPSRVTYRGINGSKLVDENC
UniProt Q96AJ1: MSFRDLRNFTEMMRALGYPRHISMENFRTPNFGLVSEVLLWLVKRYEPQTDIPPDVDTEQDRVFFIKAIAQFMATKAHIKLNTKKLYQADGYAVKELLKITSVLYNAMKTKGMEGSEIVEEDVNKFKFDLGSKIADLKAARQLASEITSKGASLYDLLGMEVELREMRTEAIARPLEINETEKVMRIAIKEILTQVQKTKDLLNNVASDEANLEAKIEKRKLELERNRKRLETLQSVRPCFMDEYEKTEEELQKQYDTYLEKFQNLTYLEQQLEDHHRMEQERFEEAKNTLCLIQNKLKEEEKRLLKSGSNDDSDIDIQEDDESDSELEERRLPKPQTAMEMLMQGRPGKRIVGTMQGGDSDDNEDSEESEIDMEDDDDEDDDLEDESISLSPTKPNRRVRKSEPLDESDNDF
UniProt P0C7P0: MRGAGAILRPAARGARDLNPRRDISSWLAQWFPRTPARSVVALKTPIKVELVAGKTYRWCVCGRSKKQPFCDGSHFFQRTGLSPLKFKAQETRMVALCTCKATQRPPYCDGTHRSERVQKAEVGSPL
UniProt P09496: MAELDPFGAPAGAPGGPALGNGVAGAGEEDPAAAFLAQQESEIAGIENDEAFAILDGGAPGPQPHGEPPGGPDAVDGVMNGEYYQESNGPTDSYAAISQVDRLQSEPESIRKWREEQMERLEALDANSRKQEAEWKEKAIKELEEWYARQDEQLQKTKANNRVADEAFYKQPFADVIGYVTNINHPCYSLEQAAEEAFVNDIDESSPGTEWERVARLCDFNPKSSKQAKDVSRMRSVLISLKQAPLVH
UniProt Q00610: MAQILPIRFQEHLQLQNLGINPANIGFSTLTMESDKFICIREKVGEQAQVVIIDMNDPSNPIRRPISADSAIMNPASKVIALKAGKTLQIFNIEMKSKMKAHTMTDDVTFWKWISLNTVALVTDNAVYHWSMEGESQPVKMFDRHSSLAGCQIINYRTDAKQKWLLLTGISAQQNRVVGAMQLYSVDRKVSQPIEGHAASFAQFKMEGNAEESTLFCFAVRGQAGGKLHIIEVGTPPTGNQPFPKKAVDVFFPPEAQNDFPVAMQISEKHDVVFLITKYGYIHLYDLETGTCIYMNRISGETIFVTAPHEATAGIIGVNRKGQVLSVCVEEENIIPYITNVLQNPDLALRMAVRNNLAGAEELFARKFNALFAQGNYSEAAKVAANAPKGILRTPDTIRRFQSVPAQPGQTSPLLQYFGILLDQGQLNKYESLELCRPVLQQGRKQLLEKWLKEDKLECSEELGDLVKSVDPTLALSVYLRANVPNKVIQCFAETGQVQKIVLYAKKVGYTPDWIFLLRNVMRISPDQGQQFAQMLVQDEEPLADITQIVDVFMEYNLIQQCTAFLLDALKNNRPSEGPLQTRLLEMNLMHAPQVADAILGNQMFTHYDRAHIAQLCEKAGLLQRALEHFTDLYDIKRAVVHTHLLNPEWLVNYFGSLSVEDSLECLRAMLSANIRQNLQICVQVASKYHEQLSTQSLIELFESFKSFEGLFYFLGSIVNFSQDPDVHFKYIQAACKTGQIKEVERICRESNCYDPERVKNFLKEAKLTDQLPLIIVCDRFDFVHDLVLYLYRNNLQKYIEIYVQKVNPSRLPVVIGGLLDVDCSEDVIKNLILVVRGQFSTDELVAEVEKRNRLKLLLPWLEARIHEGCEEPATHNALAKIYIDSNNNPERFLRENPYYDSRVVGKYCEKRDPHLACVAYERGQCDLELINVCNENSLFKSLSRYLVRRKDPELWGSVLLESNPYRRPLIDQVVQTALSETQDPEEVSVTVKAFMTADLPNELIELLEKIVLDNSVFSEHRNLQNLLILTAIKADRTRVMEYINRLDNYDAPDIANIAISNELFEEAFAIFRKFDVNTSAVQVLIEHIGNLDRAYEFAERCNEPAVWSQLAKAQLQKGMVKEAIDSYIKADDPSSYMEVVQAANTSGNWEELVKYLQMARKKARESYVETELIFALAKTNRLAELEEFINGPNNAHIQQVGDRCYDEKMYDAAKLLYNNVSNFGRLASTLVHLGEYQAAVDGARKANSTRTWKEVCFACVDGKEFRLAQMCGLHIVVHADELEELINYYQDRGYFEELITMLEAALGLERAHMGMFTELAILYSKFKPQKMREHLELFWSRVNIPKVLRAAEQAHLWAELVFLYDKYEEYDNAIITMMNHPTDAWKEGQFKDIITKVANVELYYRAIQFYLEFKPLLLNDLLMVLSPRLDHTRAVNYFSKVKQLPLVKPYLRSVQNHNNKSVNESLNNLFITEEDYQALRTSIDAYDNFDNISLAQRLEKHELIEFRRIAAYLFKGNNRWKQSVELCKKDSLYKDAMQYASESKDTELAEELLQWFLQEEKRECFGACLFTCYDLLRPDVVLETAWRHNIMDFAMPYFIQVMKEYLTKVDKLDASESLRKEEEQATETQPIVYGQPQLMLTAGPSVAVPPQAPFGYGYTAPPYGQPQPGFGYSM
UniProt P49759: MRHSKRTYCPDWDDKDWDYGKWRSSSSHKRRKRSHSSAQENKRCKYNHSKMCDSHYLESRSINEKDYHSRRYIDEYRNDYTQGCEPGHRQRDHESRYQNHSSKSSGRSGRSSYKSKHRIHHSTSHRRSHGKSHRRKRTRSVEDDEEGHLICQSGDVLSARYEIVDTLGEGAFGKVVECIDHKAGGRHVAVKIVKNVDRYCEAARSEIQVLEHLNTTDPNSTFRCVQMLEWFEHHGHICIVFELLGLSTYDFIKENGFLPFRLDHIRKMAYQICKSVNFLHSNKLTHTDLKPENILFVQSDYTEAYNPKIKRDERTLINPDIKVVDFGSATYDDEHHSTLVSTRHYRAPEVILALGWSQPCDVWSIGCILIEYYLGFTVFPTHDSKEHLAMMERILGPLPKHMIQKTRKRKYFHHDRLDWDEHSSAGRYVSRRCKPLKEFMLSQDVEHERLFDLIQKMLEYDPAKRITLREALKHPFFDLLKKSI
UniProt P51797: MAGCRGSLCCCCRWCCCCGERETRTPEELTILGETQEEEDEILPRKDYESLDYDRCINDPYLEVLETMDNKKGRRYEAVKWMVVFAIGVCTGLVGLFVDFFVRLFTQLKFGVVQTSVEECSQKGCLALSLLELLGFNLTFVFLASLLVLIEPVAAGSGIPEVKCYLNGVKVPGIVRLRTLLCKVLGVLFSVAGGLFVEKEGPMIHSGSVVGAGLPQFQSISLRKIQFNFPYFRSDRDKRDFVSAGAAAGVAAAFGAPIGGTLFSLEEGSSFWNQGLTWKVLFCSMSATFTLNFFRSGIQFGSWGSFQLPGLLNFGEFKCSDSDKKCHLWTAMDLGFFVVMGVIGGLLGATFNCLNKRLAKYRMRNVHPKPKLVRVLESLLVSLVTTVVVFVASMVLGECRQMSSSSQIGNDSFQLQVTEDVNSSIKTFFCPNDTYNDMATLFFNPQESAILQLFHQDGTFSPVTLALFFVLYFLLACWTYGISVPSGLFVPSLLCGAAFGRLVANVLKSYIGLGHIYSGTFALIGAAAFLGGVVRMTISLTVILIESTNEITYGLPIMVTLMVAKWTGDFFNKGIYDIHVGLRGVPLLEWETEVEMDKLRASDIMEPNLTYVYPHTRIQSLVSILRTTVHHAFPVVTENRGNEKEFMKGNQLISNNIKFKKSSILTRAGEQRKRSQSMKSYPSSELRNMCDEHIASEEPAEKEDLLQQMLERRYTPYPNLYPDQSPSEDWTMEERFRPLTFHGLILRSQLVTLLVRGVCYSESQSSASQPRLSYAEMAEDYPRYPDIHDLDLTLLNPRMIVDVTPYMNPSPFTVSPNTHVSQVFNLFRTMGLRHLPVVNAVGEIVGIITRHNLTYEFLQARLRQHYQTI
UniProt Q2KHT3: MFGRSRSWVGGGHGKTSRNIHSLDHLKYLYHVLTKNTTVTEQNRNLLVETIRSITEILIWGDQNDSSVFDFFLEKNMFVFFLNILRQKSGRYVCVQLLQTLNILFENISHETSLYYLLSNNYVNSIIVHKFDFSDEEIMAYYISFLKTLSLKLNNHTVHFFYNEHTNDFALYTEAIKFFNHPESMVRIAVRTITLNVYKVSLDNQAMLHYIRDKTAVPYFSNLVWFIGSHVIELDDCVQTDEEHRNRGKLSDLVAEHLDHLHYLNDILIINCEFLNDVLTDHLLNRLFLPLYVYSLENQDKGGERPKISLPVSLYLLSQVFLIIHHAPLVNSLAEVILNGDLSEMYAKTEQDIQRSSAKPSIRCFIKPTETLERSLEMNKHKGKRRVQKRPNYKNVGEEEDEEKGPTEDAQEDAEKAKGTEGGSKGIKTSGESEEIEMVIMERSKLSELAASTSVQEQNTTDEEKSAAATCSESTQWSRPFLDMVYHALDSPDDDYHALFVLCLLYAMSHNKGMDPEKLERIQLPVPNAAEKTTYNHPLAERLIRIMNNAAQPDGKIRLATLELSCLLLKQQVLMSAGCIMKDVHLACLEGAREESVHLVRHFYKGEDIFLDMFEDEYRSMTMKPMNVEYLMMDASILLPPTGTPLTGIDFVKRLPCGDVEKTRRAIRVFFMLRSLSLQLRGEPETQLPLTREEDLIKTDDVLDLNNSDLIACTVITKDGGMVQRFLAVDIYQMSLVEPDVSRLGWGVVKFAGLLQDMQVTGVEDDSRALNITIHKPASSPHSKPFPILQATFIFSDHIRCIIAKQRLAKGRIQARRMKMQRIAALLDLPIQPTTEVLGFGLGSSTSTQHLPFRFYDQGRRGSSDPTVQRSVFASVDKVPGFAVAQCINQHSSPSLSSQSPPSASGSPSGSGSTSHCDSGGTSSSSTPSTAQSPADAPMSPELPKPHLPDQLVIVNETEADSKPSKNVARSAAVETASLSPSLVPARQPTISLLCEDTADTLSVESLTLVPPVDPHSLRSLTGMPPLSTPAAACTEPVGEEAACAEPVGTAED
UniProt Q9NX76: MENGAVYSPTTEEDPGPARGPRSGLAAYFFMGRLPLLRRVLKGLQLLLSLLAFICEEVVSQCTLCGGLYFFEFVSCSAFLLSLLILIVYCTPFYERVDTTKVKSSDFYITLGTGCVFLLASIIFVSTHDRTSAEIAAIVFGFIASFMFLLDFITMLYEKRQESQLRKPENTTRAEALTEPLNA
UniProt O96017, whole entry, looked up: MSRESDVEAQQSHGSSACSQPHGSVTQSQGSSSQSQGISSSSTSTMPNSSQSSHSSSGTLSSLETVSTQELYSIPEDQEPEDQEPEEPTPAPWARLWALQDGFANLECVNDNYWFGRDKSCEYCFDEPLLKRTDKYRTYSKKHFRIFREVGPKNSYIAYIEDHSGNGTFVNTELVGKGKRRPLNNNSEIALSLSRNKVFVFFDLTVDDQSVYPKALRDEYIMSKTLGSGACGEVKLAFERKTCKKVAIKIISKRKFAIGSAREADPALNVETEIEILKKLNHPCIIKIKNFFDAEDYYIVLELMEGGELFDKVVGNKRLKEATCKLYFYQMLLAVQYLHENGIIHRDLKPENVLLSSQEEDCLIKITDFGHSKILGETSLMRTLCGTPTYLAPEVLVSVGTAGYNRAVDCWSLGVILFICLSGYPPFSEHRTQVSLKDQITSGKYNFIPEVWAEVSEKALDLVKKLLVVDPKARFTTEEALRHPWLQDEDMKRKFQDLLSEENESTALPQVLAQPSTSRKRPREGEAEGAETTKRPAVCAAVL
UniProt P56749: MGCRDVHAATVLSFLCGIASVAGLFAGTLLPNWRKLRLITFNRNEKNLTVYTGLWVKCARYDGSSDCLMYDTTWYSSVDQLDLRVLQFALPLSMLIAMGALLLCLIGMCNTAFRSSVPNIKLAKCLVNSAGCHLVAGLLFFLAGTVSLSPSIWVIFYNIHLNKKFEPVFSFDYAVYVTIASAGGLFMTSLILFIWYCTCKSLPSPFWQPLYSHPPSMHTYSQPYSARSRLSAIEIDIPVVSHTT

Compound in the first assay: C1COCCN1CCN2C3=CC=CC=C3N=C2NC(=O)C4=CC(=CC=C4)[N+](=O)[O-] [IRAK-1-4 Inhibitor I]
The assay can be described thus: log2 fold change, soluble protein after heating vs DMSO (PISA); higher = thermal stabilisation; K562 lysate, 10 uM; active = over 0.2 and 3.5 SD of the protein, either way, in both replicates (recomputed). The gist of the method:
(§1)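 K562 pellets were dounce-homogenised in PBS pH 7.4 containing 1 mM MgCl2, and the crude extract, at 1 mg/mL protein, was exposed to 10 μM compound for 30 min. Aliquots were heated for 3 min across 48°C-58°C, pooled, brought to 0.5% NP-40 at 4°C and spun at 21,000xg for 90 min, with the supernatant taken as soluble protein. TMTpro 16plex LC-MS/MS with equalised channel sums quantified that protein. Values are log-two fold changes in thermal stability relative to solvent controls, taken from duplicates.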
Take CHPF2 (UniProt Q9P2E5): the log2 fold change is inactive: 0.009.
Take CLIP4 (UniProt Q8N3C7): the log2 fold change was inactive: -0.022.
Still for that read-out and setting: the same measure for CLN8 (UniProt Q9UBY8): inactive: -0.01.
On the same count and under the same terms, to CLUAP1 (UniProt Q96AJ1) belongs inactive: -0.005; to CISD3 (UniProt P0C7P0), inactive: -0.004; to CLCN2 (UniProt P51788), inactive: -0.056.
On the same count and under the same terms, the same measure for CLUAP1 (UniProt I3L2E1): inactive: 0.179; for CLTA (UniProt P09496): inactive: -0.017.
As for CKAP2L (UniProt Q8IYA6), the log2 fold change was inactive: 0.117.
The same measure, in the same setting: to CLIP1 isoform 2 (UniProt P30622) belongs inactive: 0.026.
With CLTC (UniProt Q00610), the log2 fold change was inactive: -0.01.
Same read-out and setting: to CHD9 (UniProt Q3L8U1) belongs inactive: 0.016; to CHSY1 (UniProt Q86X52), inactive: 0.035; to CLN6 (UniProt Q9NWW5), inactive: -0.036.
For CLIC6 (UniProt Q96NY7), the log2 fold change is inactive: -0.002.
CLK1 isoform 3 (UniProt P49759): the log2 fold change is inactive: 0.123.
Still for that read-out and setting: to CHFR (UniProt Q96EP1) belongs inactive: -0.011.
Take CLN3 (UniProt Q13286): the log2 fold change was inactive: 0.069.
Consider CLCN6 isoform 5 (UniProt P51797), for which the log2 fold change was inactive: 0.087.
Same read-out and setting: the same measure for CLEC16A isoform 2 (UniProt Q2KHT3): inactive: -0.058; for CMTM6 (UniProt Q9NX76): inactive: -0.062.
Take CHPF (UniProt Q8IZ52): the log2 fold change was inactive: -0.008.
Still for that read-out and setting: to CHEK2 (UniProt O96017) belongs inactive: -0.031; to CHTF8 (UniProt P0CG13), inactive: -0.044.
CLDN12 (UniProt P56749): the log2 fold change is inactive: 0.031.

Compound in another assay: C=CC(=O)N1CCC[C@@H](n2nc(-c3ccc(Oc4ccccc4)cc3)c3c(N)ncnc32)C1 [ibrutinib]
The description is as above. The gist of the method: as §1
On to CHSY1 (UniProt Q86X52), for which the log2 fold change was inactive: -0.082.
On to CNBP (UniProt P62633), for which the log2 fold change was inactive: 0.073.
Still for that read-out and setting: the same measure for CMTM6 (UniProt Q9NX76): inactive: 0.043; for CHPF (UniProt Q8IZ52): inactive: -0.047; for CHEK2 (UniProt O96017): inactive: 0.04.
Still for that read-out and setting: to CHTF8 (UniProt P0CG13) belongs inactive: -0.06.

Compound in the next assay: CC(=O)c1cnc2ccc(-c3cc(Cl)c(O)c(Cl)c3)nc2c1N[C@H]1CC[C@H](CN(C)C)CC1
The description is as above. Put shortly: as §1
Turning to CLIP4 (UniProt Q8N3C7), the log2 fold change was inactive: -0.045.
Same read-out and setting: the same measure for CLN8 (UniProt Q9UBY8): inactive: 0.02.
With CLUAP1 (UniProt Q96AJ1), the log2 fold change was inactive: 0.059.
For CISD3 (UniProt P0C7P0), the log2 fold change is inactive: -0.006.
Consider CLCN2 (UniProt P51788), for which the log2 fold change is inactive: -0.11.
On the same count and under the same terms, to CLUAP1 (UniProt I3L2E1) belongs inactive: -0.152.
Still for that read-out and setting: the same measure for CLTA (UniProt P09496): inactive: -0.015; for CLK3 (UniProt P49761): inactive: -0.008; for CLIP1 isoform 2 (UniProt P30622): inactive: 0.05.
On the same count and under the same terms, to CLTC (UniProt Q00610) belongs inactive: -0.008; to CHSY1 (UniProt Q86X52), inactive: 0.101; to CNBP (UniProt P62633), inactive: 0.16.
In the case of CLIP2 (UniProt Q9UDT6), the log2 fold change was inactive: -0.012.
Consider CMTM4 (UniProt Q8IZR5), for which the log2 fold change is inactive: -0.132.
Still for that read-out and setting: to CLIC6 (UniProt Q96NY7) belongs inactive: -0.081; to CLINT1 isoform 3 (UniProt Q14677), inactive: -0.019; to CLK1 isoform 3 (UniProt P49759), inactive: -0.186.
Consider CHFR (UniProt Q96EP1), for which the log2 fold change was inactive: 0.158.
As to CLN3 (UniProt Q13286), the log2 fold change is inactive: 0.058.
For the target CLN5 (UniProt O75503), the log2 fold change was inactive: 0.04.
The same measure, in the same setting: the same measure for CLCN6 isoform 5 (UniProt P51797): inactive: 0.035; for CLEC16A isoform 2 (UniProt Q2KHT3): inactive: -0.036; for CMTM6 (UniProt Q9NX76): inactive: 0.055.
On the same count and under the same terms, the same measure for CHEK2 (UniProt O96017): inactive: -0.043; for CHTF8 (UniProt P0CG13): inactive: -0.149; for CLDN12 (UniProt P56749): inactive: 0.05.

Compound in the next assay: CC(C)(C)Cn1c(N)nc2ccc(-c3[nH]c(C(C)(C)C)nc3-c3ccc(F)cc3)nc21 [ralimetinib]
Described as above. Put shortly:
as §1
For CHPF2 (UniProt Q9P2E5), the log2 fold change was inactive: 0.023.
Still for that read-out and setting: to CLIP4 (UniProt Q8N3C7) belongs inactive: 0.049.
Regarding CLN8 (UniProt Q9UBY8), the log2 fold change is inactive: -0.001.
Take CLUAP1 (UniProt Q96AJ1): the log2 fold change was inactive: -0.008.
Still for that read-out and setting: to CISD3 (UniProt P0C7P0) belongs inactive: -0.048; to CLCN2 (UniProt P51788), inactive: -0.055; to CLUAP1 (UniProt I3L2E1), inactive: -0.248.
For the target CLTA (UniProt P09496), the log2 fold change is inactive: 0.008.
Consider CKAP2L (UniProt Q8IYA6), for which the log2 fold change is inactive: -0.032.
On to CLIP1 isoform 2 (UniProt P30622), for which the log2 fold change was inactive: -0.002.
With CLTC (UniProt Q00610), the log2 fold change was inactive: 0.013.
As to CHD9 (UniProt Q3L8U1), the log2 fold change is inactive: -0.117.
Still for that read-out and setting: to CHSY1 (UniProt Q86X52) belongs inactive: -0.261.
On the same count and under the same terms, to CLN6 (UniProt Q9NWW5) belongs inactive: -0.051; to CLIC6 (UniProt Q96NY7), inactive: 0.04; to CLINT1 isoform 3 (UniProt Q14677), inactive: -0.027.
On the same count and under the same terms, to CLK1 isoform 3 (UniProt P49759) belongs inactive: -0.128; to CHFR (UniProt Q96EP1), inactive: 0.007; to CLN3 (UniProt Q13286), inactive: -0.022.
CLCN6 isoform 5 (UniProt P51797): the log2 fold change is inactive: 0.058.
Turning to CLEC16A isoform 2 (UniProt Q2KHT3), the log2 fold change is inactive: 0.
As for CMTM6 (UniProt Q9NX76), the log2 fold change is inactive: -0.002.
Regarding CHPF (UniProt Q8IZ52), the log2 fold change is inactive: 0.07.
Turning to CHEK2 (UniProt O96017), the log2 fold change was inactive: -0.011.
In the case of CHTF8 (UniProt P0CG13), the log2 fold change is inactive: 0.127.
The same measure, in the same setting: to CLDN12 (UniProt P56749) belongs inactive: 0.006.

The values are drawn from the supplement of paper PMC10849652.
